The supplement of paper PMC4962491
± gives the standard deviation of the averaged measurements. Only a part is listed here, and it is no random draw. This data set is noisy: repeats of one test often differ as much as different tests do.

System: FaDu
Assay: mitochondrial oxygen consumption rate normalised to cell number, Z score over the library; higher = higher oxygen consumption (negative = OCR reduction)
Settings: treatment time 24 h, assay medium: 5 mM galactose, 5 mM pyruvate, 4 mM glutamine
Method: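 Primary screen: FaDu cells were incubated 24 h with Pharmakon 1600 / TDI oncology set compounds at 2 or 10 uM. Mitochondrial-specific OCR (basal minus 2 uM antimycin A) was measured on a Seahorse XF96 in assay medium with 5 mM galactose, 5 mM pyruvate and 4 mM glutamine, then corrected for Hoechst cell number and expressed as a Z score […]. Compounds that cut cell number by >66% were excluded. Two repeats.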

SMILES	mitochondrial oxygen consumption rate normalised (2 µM)	mitochondrial oxygen consumption rate normalised (10 µM)
O=C1c2c(O)cccc2Cc2cccc(O)c21	0.107 ± 0.14	
CC[N+](C)(CC)CCOC(=O)C(O)(c1ccccc1)C1CCCCC1 (configuration not stated)	0.23 ± 0.33	
COc1cc(C(=O)OCCCN2CCCN(CCCOC(=O)c3cc(OC)c(OC)c(OC)c3)CC2)cc(OC)c1OC	0.604 ± 0.06	
CN(C)CCCN1c2ccccc2Sc2ccc(C(F)(F)F)cc21	-0.0939 ± 0.67	
CCCCC(O)c1ccccc1 (configuration not stated)	-0.565 ± 0.28	
CC(N/C(=N\C#N)Nc1ccncc1)C(C)(C)C (configuration not stated)	0.503 ± 0.21	
CC1(C)OC(=O)C(OCC2CC2)=C1c1ccc(S(C)(=O)=O)cc1	0.0502 ± 0.39	
CCN(CC)CCOC(=O)C1(C2CCCCC2)CCCCC1	-0.317 ± 0.84	
CCCCOCCOCCOCc1cc2c(cc1CCC)OCO2	0.317 ± 1.2	
CC(=O)Oc1ccccc1C(=O)Nc1ncc([N+](=O)[O-])s1	-0.115 ± 1.3	
Oc1cc(O)c2c(c1)O[C@H](c1ccc(O)c(O)c1)[C@@H](O)C2	-0.405 ± 0.28	
O=C(O)CCc1nc(-c2ccccc2)c(-c2ccccc2)o1	-0.0757 ± 0.69	
O=C1c2ccccc2C(=O)C1c1ccccc1	-0.216 ± 0.3	-1.52 ± 0.92
Clc1ccc2c(c1)C(N1CCNCC1)=Nc1ccccc1O2	-0.971 ± 1.3	
OCCN1CCN(CCCN2c3ccccc3Sc3ccc(C(F)(F)F)cc32)CC1	1.24 ± 0.43	
CC(C)(Oc1ccc(CCNC(=O)c2ccc(Cl)cc2)cc1)C(=O)O	1.05 ± 0.24	
c1ccc(CC2=NCCN2)cc1	-0.152 ± 0.14	
CC1=C(/C=C/C(C)=C/C=C/C(C)=C/C=C/C=C(C)/C=C/C=C(C)/C=C/C2=C(C)CCCC2(C)C)C(C)(C)CCC1 [beta-CAROTENE]	0.423 ± 0.15	
CC(C(=O)O)c1ccc(CC2CCCC2=O)cc1 (configuration not stated)	-0.864 ± 0.58	
CO[C@H]1/C=C/O[C@@]2(C)Oc3c(C)c(O)c4c(O)c(c(/C=N/N5CCN(C)CC5)c(O)c4c3C2=O)NC(=O)/C(C)=C\C=C\[C@H](C)[C@H](O)[C@@H](C)[C@@H](O)[C@@H](C)[C@H](OC(C)=O)[C@@H]1C	-0.572 ± 0.12	
CCCSc1ccc2[nH]c(NC(=O)OC)nc2c1	1.01 ± 0.65	0.883 ± 0.12
Cc1c(Cl)cccc1Nc1ccccc1C(=O)O	-0.68 ± 1.3	
O=C(O)c1ccccc1-c1c2cc(I)c(=O)c(I)c-2oc2c(I)c(O)c(I)cc12	0.759 ± 0.47	

SMILES	mitochondrial oxygen consumption rate normalised (2 µM)	mitochondrial oxygen consumption rate normalised (10 µM)
CCc1ccc(CCOc2ccc(CC3SC(=O)NC3=O)cc2)nc1 (configuration not stated)	-0.169 ± 0.75	
Cc1ccc(N(CC2=NCCN2)c2cccc(O)c2)cc1	-0.678 ± 0.44	
O=C1c2c(O)cc(CO)cc2C(OC2OC(CO)C(O)C(O)C2O)c2cccc(OC3OC(CO)C(O)C(O)C3O)c21 (configuration not stated) [CASANTHRANOL [cascaroside A shown]]	0.4 ± 0.24	
CN(C)[C@@H]1C(O)=C(C(N)=O)C(=O)[C@@]2(O)C(O)=C3C(=O)c4c(O)cccc4[C@@](C)(O)[C@H]3C[C@@H]12	-0.8419 ± 0.0073	
C[C@H](N[C@@H](CCc1ccccc1)C(=O)O)C(=O)N1CCC[C@H]1C(=O)O	0.503 ± 0.43	
COC(=O)[C@H](c1ccccc1Cl)N1CCc2sccc2C1	0.423 ± 1.1	
C[C@]12CCC(=O)C=C1CC[C@@H]1[C@@H]2C(=O)C[C@@]2(C)[C@H]1CC[C@]2(O)C(=O)CO	-0.395 ± 0.56	
COCCCC/C(=N\OCCN)c1ccc(C(F)(F)F)cc1	0.251 ± 0.47	
CC(=O)[C@@]12O[C@](C)(c3ccccc3)O[C@@H]1C[C@H]1[C@@H]3CCC4=CC(=O)CC[C@]4(C)[C@H]3CC[C@@]12C	-0.271 ± 0.92	
NC(=O)N[C@@H](CCC(=O)O)C(=O)O	-0.164 ± 0.87	
Nc1nc(F)nc2c1ncn2[C@@H]1O[C@H](COP(=O)(O)O)[C@@H](O)[C@@H]1O [Fludarabine Phosphate]	0.548 ± 0.61	
Nc1nc(F)nc2c1ncn2[C@@H]1O[C@H](COP(=O)(O)O)[C@@H](O)[C@@H]1O	-0.579 ± 0.45	
CCOC(=O)N1CCC(=C2c3ccc(Cl)cc3CCc3cccnc32)CC1	0.43 ± 2.1	
NC(=O)c1ccccc1O	-0.323 ± 0.076	
COc1ccc(C(=O)CCC(=O)O)c2ccccc12	0.644 ± 0.81	
CC(C)C[C@H](NC(=O)[C@H](Cc1ccccc1)NC(=O)c1cnccn1)B(O)O [Bortezomib]	-0.557 ± 0.22	
Oc1c(Br)cc(Br)c2cccnc12	0.347 ± 1.1	-1.77 ± 0.19
c1ccc2c(c1)CCCC2C1=NCCN1 (configuration not stated)	-1.33 ± 0.23	
C[C@@H](O)[C@H]1C(=O)N2C(C(=O)O)=C(SCCNC=N)C[C@H]12	0.219 ± 0.95	
Cc1ncc([N+](=O)[O-])n1C	1.1 ± 1.1	
CCCCCN(C)CCC(O)(P(=O)(O)O)P(=O)(O)O	0.647 ± 0.25	
C1N2CN3CN1CN(C2)C3	1.25 ± 0.56	
C[Se]CC[C@H](N)C(=O)O	0.708 ± 0.94	

SMILES	mitochondrial oxygen consumption rate normalised (2 µM)	mitochondrial oxygen consumption rate normalised (10 µM)
CC(C)c1nc(N(C)S(C)(=O)=O)nc(-c2ccc(F)cc2)c1/C=C/[C@@H](O)C[C@@H](O)CC(=O)O	0.0565 ± 0.89	
C=C(CC)C(=O)c1ccc(OCC(=O)O)c(Cl)c1Cl	0.878 ± 0.41	
C[N+](C)(C)CCOP(=O)(O)OP(=O)([O-])OC[C@H]1O[C@@H](n2ccc(N)nc2=O)[C@H](O)[C@@H]1O	-0.276 ± 0.29	
Nc1ccc(S(=O)(=O)NC(=O)c2ccccc2)cc1	-0.643 ± 0.03	
FCOC(C(F)(F)F)C(F)(F)F	-0.822 ± 0.083	
CCN(CC)CCCC(C)Nc1ccnc2cc(Cl)ccc12 (configuration not stated)	-3.58 ± 0.36	
CS(=O)(=O)c1ccc([C@@H](O)[C@@H](CF)NC(=O)C(Cl)Cl)cc1	-0.4989 ± 0.0012	
CC(C)NCC(O)COc1cccc2ccccc12 (racemic)	0.146 ± 0.61	-0.291 ± 0.42
Cc1cccc(C)c1NC(=O)c1ccccc1C(=O)O	0.202 ± 0.32	-0.418 ± 1.1
O=C1OC(c2ccc(O)cc2)(c2ccc(O)cc2)c2ccccc21	1.339 ± 0.0034	
O=C(O)CN(CCN(CC(=O)O)CC(=O)O)CC(=O)O.[Na+].[Na+].[Na+]	-0.15 ± 0.32	
CC(C(=O)O)c1cccc(Oc2ccccc2)c1 (configuration not stated)	-0.0899 ± 0.046	
CCCc1ncc(C[n+]2ccccc2C)c(N)n1	-0.103 ± 0.23	
CN(C)c1cnccn1	0.0545 ± 0.76	
CCn1cc(C(=O)O)c(=O)c2cc(F)c(N3CCNCC3)nc21	0.976 ± 0.094	
CC(=O)OCC(=O)NCCCOc1cccc(CN2CCCCC2)c1	0.298 ± 0.62	
C=CCc1ccc(O)c(OC)c1	0.166 ± 0.073	
OC[C@@H](O)[C@@H](O)[C@H](O)[C@H](O)CO	0.388 ± 0.68	
CC(=O)N1CCN(c2ccc(OCC3COC(Cn4ccnc4)(c4ccc(Cl)cc4Cl)O3)cc2)CC1 (configuration not stated)	-1.02 ± 0.04	
CC(C)NCC(O)c1ccc(NS(C)(=O)=O)cc1 (configuration not stated)	-0.642 ± 1.1	
C#C[C@]1(O)CC[C@H]2[C@@H]3CCc4cc(OC)ccc4[C@H]3CC[C@@]21C	-0.815 ± 0.23	

Taken from above.
mitochondrial oxygen consumption rate normalised (2 µM), CC(C)NCC(O)COc1cccc2ccccc12 (racemic) reads 0.146 ± 0.61
mitochondrial oxygen consumption rate normalised (2 µM), O=C(O)c1ccccc1-c1c2cc(I)c(=O)c(I)c-2oc2c(I)c(O)c(I)cc12 reads 0.759 ± 0.47
